Source: the supplement of paper PMC10849652
Some of the results follow.

Protein sequences, listed by entry. Tags and fused reporters are not part of them. Lines headed by an entry give the natural chain unless they say otherwise; changes in a name come on top.
UniProt Q8N961, whole entry, looked up: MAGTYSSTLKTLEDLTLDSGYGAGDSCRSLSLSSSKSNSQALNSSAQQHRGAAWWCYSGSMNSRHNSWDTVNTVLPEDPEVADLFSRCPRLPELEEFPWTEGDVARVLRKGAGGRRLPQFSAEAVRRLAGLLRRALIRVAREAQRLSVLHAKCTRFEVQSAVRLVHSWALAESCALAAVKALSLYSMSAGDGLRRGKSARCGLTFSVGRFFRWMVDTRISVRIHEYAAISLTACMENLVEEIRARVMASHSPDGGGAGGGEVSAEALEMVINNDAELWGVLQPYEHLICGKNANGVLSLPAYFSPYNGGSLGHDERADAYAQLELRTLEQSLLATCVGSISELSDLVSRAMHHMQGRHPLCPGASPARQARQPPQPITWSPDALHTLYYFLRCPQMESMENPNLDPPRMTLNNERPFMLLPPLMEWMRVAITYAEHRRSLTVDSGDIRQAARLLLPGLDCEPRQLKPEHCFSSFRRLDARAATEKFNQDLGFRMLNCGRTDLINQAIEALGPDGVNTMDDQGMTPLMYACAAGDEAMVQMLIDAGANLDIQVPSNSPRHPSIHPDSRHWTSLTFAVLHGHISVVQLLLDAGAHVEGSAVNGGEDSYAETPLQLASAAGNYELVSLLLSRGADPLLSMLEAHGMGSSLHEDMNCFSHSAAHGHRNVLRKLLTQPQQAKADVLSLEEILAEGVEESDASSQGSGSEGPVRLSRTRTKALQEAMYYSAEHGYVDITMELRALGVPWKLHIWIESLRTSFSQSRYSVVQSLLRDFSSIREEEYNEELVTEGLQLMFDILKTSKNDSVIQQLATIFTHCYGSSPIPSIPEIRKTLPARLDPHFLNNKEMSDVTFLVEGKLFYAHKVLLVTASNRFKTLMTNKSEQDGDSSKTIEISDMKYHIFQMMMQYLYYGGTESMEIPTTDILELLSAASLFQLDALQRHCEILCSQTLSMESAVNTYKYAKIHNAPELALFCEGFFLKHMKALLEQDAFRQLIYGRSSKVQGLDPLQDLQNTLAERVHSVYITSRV
UniProt Q96P50: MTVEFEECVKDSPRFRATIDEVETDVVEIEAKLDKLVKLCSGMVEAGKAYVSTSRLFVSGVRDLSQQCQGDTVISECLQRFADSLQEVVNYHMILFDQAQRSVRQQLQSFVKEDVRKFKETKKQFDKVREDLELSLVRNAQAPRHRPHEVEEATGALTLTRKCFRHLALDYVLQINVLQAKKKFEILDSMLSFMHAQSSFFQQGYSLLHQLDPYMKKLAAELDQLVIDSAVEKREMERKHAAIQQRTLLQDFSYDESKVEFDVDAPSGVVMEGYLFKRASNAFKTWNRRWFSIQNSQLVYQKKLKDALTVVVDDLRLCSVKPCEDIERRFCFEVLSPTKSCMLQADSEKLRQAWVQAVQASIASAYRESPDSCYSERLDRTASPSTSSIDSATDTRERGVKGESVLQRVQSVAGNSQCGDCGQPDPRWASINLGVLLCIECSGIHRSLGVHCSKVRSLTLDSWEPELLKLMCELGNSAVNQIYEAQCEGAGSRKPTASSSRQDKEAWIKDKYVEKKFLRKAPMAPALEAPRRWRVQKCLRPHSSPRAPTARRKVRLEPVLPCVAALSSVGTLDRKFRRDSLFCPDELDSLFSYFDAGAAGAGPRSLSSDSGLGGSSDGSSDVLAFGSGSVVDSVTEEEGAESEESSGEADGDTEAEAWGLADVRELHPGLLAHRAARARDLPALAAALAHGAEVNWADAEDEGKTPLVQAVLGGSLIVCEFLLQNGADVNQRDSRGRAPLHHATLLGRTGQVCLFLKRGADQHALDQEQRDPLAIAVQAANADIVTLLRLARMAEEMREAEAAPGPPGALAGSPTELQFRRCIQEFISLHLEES
UniProt Q4L235: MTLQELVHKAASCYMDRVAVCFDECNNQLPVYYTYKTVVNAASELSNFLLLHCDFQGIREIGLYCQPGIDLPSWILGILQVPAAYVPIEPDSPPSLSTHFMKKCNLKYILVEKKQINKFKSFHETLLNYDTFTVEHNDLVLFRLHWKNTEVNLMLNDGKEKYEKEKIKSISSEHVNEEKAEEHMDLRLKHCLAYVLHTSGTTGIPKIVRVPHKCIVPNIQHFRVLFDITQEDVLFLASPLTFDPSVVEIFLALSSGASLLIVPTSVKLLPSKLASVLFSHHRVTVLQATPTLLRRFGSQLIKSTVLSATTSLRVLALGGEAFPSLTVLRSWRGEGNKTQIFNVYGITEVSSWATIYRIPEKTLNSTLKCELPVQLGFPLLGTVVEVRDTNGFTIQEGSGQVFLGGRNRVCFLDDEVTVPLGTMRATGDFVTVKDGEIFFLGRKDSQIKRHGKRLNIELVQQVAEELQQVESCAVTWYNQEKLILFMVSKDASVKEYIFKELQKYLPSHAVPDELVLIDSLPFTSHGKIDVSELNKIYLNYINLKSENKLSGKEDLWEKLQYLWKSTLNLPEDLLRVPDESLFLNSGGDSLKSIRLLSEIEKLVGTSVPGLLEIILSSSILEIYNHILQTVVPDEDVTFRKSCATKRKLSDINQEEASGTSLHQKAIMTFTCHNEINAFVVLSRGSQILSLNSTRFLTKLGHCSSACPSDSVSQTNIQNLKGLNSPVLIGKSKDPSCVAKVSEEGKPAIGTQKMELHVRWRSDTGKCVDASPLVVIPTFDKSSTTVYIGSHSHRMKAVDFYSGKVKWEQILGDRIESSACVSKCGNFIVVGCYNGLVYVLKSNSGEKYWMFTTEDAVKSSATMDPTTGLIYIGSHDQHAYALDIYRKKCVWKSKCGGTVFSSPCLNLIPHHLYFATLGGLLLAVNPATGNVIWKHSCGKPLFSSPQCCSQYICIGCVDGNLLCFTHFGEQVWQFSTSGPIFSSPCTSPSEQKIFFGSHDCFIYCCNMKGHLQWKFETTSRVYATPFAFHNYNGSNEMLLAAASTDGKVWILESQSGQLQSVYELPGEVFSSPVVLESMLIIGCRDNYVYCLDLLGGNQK
UniProt Q9BTE6: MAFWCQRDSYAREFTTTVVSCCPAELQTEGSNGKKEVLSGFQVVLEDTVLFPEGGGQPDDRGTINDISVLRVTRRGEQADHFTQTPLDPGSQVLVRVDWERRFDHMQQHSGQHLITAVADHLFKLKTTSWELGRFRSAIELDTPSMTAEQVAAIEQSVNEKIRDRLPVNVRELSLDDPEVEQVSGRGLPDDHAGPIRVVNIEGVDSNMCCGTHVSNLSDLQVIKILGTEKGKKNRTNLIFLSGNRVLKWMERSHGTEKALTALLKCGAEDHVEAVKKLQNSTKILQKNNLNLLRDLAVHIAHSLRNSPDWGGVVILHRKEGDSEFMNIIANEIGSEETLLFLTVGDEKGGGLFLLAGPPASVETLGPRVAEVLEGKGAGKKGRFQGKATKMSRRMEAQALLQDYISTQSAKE
UniProt O94911: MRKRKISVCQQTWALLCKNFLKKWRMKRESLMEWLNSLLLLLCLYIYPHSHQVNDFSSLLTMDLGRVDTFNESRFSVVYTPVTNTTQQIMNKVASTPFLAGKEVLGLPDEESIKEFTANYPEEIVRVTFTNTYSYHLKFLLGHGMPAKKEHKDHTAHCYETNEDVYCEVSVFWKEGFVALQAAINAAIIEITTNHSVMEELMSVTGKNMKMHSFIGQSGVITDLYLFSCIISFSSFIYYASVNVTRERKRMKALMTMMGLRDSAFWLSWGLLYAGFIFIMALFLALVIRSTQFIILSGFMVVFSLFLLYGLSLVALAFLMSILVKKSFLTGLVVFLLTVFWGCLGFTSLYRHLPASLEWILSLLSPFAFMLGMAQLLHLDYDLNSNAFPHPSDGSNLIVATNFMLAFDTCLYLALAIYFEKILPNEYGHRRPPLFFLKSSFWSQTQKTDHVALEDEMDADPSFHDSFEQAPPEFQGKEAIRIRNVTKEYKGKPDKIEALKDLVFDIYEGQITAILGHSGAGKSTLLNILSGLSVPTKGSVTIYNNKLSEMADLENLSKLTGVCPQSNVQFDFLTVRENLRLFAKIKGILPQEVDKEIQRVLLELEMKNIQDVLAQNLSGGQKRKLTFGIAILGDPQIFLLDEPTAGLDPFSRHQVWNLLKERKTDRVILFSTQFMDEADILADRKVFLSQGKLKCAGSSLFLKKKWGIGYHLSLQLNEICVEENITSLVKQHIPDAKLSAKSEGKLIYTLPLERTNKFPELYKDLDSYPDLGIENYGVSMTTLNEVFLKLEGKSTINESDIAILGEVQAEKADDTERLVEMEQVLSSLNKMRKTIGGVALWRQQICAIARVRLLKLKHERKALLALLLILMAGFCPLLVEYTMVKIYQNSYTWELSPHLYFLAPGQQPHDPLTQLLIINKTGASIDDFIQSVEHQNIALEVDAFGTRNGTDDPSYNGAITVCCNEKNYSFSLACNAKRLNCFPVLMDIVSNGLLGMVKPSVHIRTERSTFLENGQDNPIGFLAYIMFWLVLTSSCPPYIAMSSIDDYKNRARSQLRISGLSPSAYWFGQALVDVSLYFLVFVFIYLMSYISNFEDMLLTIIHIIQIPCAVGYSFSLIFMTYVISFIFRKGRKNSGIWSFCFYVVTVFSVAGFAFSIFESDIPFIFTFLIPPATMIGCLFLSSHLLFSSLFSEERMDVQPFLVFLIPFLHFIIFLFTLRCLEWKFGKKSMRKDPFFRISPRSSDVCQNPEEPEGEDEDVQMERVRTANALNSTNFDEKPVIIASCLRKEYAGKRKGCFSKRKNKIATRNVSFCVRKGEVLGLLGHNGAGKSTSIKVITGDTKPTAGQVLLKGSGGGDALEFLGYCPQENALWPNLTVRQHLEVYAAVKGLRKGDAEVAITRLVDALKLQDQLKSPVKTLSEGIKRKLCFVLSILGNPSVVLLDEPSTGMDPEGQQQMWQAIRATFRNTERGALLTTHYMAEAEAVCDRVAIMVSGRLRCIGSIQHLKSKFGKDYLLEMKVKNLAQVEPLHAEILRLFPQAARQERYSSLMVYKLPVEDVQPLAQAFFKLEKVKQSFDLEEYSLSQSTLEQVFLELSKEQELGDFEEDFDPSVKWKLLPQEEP
UniProt Q2M2I8: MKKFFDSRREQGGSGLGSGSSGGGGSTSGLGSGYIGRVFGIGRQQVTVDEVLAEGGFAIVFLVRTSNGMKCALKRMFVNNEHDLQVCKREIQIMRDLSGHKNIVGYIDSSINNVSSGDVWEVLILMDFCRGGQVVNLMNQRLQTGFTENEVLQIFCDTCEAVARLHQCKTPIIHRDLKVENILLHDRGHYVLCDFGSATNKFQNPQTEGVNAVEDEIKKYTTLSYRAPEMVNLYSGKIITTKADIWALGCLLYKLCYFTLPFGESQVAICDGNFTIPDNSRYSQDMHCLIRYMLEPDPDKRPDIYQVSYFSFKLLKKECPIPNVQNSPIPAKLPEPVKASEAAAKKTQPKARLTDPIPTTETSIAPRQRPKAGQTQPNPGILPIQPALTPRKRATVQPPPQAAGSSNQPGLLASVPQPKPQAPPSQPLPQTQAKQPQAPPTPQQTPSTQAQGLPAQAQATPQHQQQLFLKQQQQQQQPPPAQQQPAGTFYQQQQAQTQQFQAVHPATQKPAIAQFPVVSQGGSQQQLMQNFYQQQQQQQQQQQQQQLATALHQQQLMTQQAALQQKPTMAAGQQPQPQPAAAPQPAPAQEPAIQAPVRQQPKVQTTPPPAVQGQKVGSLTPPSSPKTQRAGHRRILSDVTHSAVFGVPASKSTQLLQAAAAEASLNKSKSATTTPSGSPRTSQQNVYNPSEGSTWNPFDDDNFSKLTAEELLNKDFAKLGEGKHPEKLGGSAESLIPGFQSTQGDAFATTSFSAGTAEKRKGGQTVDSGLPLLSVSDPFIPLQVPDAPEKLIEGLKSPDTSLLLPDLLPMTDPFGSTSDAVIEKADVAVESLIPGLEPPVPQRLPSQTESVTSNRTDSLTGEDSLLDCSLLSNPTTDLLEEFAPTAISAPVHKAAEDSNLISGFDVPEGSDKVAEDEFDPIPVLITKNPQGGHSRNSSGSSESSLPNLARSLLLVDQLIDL
UniProt Q96AP0: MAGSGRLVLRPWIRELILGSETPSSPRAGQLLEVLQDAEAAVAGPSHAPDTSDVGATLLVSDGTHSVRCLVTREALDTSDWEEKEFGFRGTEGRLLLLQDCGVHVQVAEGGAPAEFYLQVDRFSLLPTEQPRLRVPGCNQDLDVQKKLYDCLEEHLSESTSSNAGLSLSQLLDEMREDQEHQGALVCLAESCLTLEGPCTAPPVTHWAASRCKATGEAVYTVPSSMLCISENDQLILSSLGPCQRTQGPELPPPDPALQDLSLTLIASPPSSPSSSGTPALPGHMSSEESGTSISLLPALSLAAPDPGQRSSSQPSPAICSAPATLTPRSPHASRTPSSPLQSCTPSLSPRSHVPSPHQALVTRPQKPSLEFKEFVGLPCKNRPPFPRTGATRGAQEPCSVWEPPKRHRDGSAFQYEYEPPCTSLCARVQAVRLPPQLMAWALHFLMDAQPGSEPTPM

Columns and labels:
Assay in all cases: log2 fold change, soluble protein after heating vs DMSO (PISA); higher = thermal stabilisation; K562 lysate, 10 uM; active = over 0.2 and 3.5 SD of the protein, either way, in both replicates (recomputed)
[1] = compound: CS(=O)(=O)CCNCc1ccc(-c2ccc3ncnc(Nc4ccc(OCc5cccc(F)c5)c(Cl)c4)c3c2)o1 [lapatinib]
Method in brief: (§1)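 K562 pellets were dounce-homogenised in PBS pH 7.4 containing 1 mM MgCl2, and the crude extract, at 1 mg/mL protein, was exposed to 10 μM compound for 30 min. Aliquots were heated for 3 min across 48°C-58°C, pooled, brought to 0.5% NP-40 at 4°C and spun at 21,000xg for 90 min, with the supernatant taken as soluble protein. TMTpro 16plex LC-MS/MS with equalised channel sums quantified that protein. Values are log-two fold changes in thermal stability relative to solvent controls, taken from duplicates.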

[2] = compound: C[C@@H](Oc1cc(-c2cnn(C3CCNCC3)c2)cnc1N)c1c(Cl)ccc(F)c1Cl [crizotinib]
Method in brief: as §1

[3] = compound: C[C@H](C1=CC=C(C=C1)C(=O)NC2=C3C=CNC3=NC=C2)N
Method in brief: as §1

[4] = compound: C[C@H](Nc1ncnc2nc[nH]c12)c1cc2cccc(Cl)c2c(=O)n1-c1ccccc1 [duvelisib]
Method in brief: as §1

[5] = compound: Cc1cc(Nc2cc(CN3CCOCC3)c3nc(C)c(Cc4ccc(Cl)cc4F)n3n2)n[nH]1 [gandotinib]
Method in brief: as §1

[6] = compound: Cc1cc(Nc2cc(N3CCN(C)CC3)nc(Sc3ccc(NC(=O)C4CC4)cc3)n2)n[nH]1 [tozasertib]
Method in brief: as §1

[7] = compound: Cc1ccc(-n2nc(C(C)(C)C)cc2NC(=O)Nc2ccc(OCCN3CCOCC3)c3ccccc23)cc1 [doramapimod]
Method in brief: as §1

[8] = compound: Cc1cccc(CC(=O)N2CCc3c2ccc(-c2cn(C)c4ncnc(N)c24)c3F)n1
Method in brief: as §1

[9] = compound: Cc1cn(-c2cc(NC(=O)c3ccc(C)c(Nc4nccc(-c5cccnc5)n4)c3)cc(C(F)(F)F)c2)cn1 [nilotinib]
Method in brief: as §1

[10] = compound: Cc1nc(Nc2n[nH]c3c2CN(C(=O)N[C@H](CN(C)C)c2ccccc2)C3(C)C)c2sccc2n1
Method in brief: as §1

[11] = compound: Cc1nc(Nc2ncc(C(=O)Nc3c(C)cccc3Cl)s2)cc(N2CCN(CCO)CC2)n1 [dasatinib]
Method in brief: as §1

[12] = compound: Cc1ncc(-c2ccnc(Nc3ccc(S(C)(=O)=O)cc3)n2)n1C(C)C
Method in brief: as §1

[13] = compound: Cn1cc(-c2ccc3c(c2)CCN3C(=O)Cc2cccc(C(F)(F)F)c2)c2c(N)ncnc21
Method in brief: as §1

[14] = compound: Cn1cc(CNCC2CCN(c3ncc(C(=O)NO)cn3)CC2)c2ccccc21 [quisinostat]
Method in brief: as §1

[15] = compound: Cn1cncc1[C@@](N)(c1ccc(Cl)cc1)c1ccc2c(c1)c(-c1cccc(Cl)c1)cc(=O)n2C [tipifarnib]
Method in brief: as §1

[16] = compound: NC(=O)Nc1cc(-c2cccc(F)c2)sc1C(=O)N[C@H]1CCCNC1
Method in brief: as §1

[17] = compound: NC(=O)c1cnc(N[C@@H]2CCCC[C@@H]2N)nc1Nc1cccc(-n2nccn2)c1
Method in brief: as §1

[18] = compound: NC1(c2ccc(-c3nc4ccn5c(=O)[nH]nc5c4cc3-c3ccccc3)cc2)CCC1
Method in brief: as §1

[19] = compound: CS(=O)(=O)N1CCN(Cc2cc3nc(-c4cccc5[nH]ncc45)nc(N4CCOCC4)c3s2)CC1 [pictilisib]
Method in brief: as §1

[20] = compound: Cc1ccc(NC(=O)c2ccc(CN3CC[C@H](N(C)C)C3)c(C(F)(F)F)c2)cc1Nc1nccc(-c2cncnc2)n1 [bafetinib]
Method in brief: as §1

Measured: log2 fold change

ACAD10 isoform 5 (UniProt Q6JQN1)
inactive: [1] -0.064 | [2] -0.11 | [3] 0.223 | [4] 0.005 | [5] -0.079 | [6] -0.047 | [7] 0.024 | [8] -0.079 | [9] -0.054 | [10] -0.097 | [11] 0.015 | [12] 0.076 | [13] -0.03 | [14] -0.186 | [15] -0.148 | [16] 0.013 | [17] 0.004 | [18] -0.043

ABHD4 (UniProt Q8TB40)
inactive: [9] 0.151 | [10] 0.007 | [12] -0.078 | [15] -0.027

ABTB2 (UniProt Q8N961)
inactive: [19] 0.1 | [3] -0.457 | [5] 0.027 | [20] -0.315 | [8] 0.228

ACAP3 (UniProt Q96P50)
inactive: [1] 0.092 | [19] 0.175 | [4] 0.056 | [6] -0.023 | [20] 0.107 | [9] 0.03 | [10] -0.092 | [11] 0.023 | [12] 0.139 | [13] 0.062 | [15] -0.173 | [17] -0.057

AASDH (UniProt Q4L235)
inactive: [1] 0.038 | [19] 0.007 | [3] -0.056 | [4] -0.036 | [5] -0.051 | [6] 0.006 | [20] -0.052 | [8] 0.003 | [9] -0.018 | [10] 0.071 | [11] -0.071 | [12] -0.06 | [13] 0.016 | [15] -0.056 | [17] 0.026 | [18] 0.091

AARSD1 (UniProt Q9BTE6)
inactive: [1] -0.128 | [19] 0.012 | [3] -0.273 | [4] 0.093 | [5] 0.478 | [6] -0.263 | [20] 0.012 | [8] -0.034 | [9] 0.09 | [10] -0.167 | [11] 0.033 | [12] 0.07 | [13] 0.031 | [15] 0.148 | [17] 0.341

ABCA8 isoform 3 (UniProt O94911)
inactive: [1] 0.076 | [2] -0.143 | [3] -0.087 | [5] -0.089 | [7] 0.067 | [8] 0.037 | [14] 0.005 | [16] 0.041 | [17] 0.104 | [18] -0.208

AAK1 (UniProt Q2M2I8)
inactive: [1] -0.087 | [19] 0.047 | [2] 0.248 | [3] 0.411 | [4] -0.005 | [5] 0.358 | [6] 0.055 | [7] -0.018 | [20] -0.003 | [8] -0.084 | [9] -0.045 | [10] 0.45 | [11] 0.042 | [12] 0.42 | [13] -0.005 | [14] -0.074 | [15] 0 | [16] 0.522 | [17] 0.086 | [18] -0.042

ABCD4 (UniProt O14678)
inactive: [1] -0.029 | [17] 0.098 | [18] 0.037

ACD (UniProt Q96AP0)
inactive: [2] -0.008 | [3] 0.268 | [5] -0.155 | [7] 0.145 | [8] -0.288 | [14] -0.135 | [16] 0.003

ABCA7 (UniProt Q8IZY2)
inactive: [2] -0.038 | [4] -0.034 | [7] 0.187 | [11] 0.143 | [13] 0.079 | [14] -0.142 | [16] 0.16

ACO2 (UniProt Q99798)
inactive: [1] -0.006 | [19] 0.002 | [2] -0.02 | [3] -0.078 | [4] 0 | [5] 0.036 | [6] 0.009 | [7] 0 | [20] -0.007 | [8] 0.024 | [9] -0.007 | [10] -0.003 | [11] -0.013 | [12] 0.005 | [13] 0.019 | [14] -0.009 | [15] 0.008 | [16] -0.015 | [17] 0.022 | [18] -0.019
